Results on 69 sequences are retold here after PubChem BioAssay AID1347426 (Functional Genomics Laboratory (NCATS/FGL), 2020).

The campaign covered roughly 31,000 sequences. About 1,400 (4.5%) were called active.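 The calls were made as follows: active = median seed-adjusted z-score above 1 or below -1; inactive = the rest.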 The list shows a part of the results.

The assay in a line: Novel Modifiers of Survival Motor Neuron (SMN) Protein: Gene Identification via Genome-wide siRNA Screen. To be noted: HEK293T SMN2-luciferase reporter, siRNA knockdown, 72 h; actives lie on both sides. The source says: Spinal muscular atrophy (SMA) is the most common neuromuscular autosomal recessive disorder and one of the leading genetic causes of infant death. SMA results from mutations inducing loss of function or deletion in the survival of motor neuron-1 gene (SMN1), leading to deficiency of the survival motor neuron (SMN) protein. Although a second nearly identical gene, SMN2, is retained in humans, its expression primarily produces an aberrantly spliced isoform that is largely unstable and quickly degraded. We performed a genome-wide RNAi screen using a cell-based reporter assay to identify genes and pathways that modulate SMN protein stability. The screen identified over 200 genes that led to the greatest increase or decrease in luciferase expression.
Using HEK293T cells stably expressing a luciferase reporter that combines the promoter and splicing based cassettes in tandem with the major portion of the native SMN2 cDNA with luciferase, we performed a genome-wide RNAi screen to identify modulators of SMN protein levels. Luciferase is expressed when full-length SMN protein is generated with luminescence signal proportional to SMN protein levels. Our luciferase-based reporter assay was used to screen Ambion Silencer Select Human Druggable Genome siRNA library (10418 genes, 3 unique siRNAs per gene) using lipid-based reverse transfection.
Briefly, 1 pmol of each siRNA was spotted to a well of a 384-well plate (Corning, Corning, NY) and 20 microL of serum-free DMEM containing […] of Lipofectamine RNAiMax (Life Technologies, Carlsbad, CA) was then added to each well. Transfected cells were maintained at 37 degrees C in 5% CO2 for 72 hours, 20 microL of ONE-Glo Reagent (Promega) was added to wells for luciferase quantification. Raw luminescence reads were normalized to Ambion(R) Silencer(R) Negative Control #2 siRNA, then log10 transformed. A robust statistical measure of median absolute deviation (MAD) to standardize siRNA activities from each screen. Common Seed Analysis was used to help prioritize clean hits as opposed to those appearing to arise from seed based off-target effects. Candidate modulators were defined as the genes having a MAD score greater than 1.0 or less than -1.0.
In general terms: In a reporter assay the amount or activity of a reporter protein is the signal.
As to GGGAGAUUCUCCAACUAAATT against SR140, the median seed-adjusted z-score is active: 1.16.
Then GAUCAGCAUUUGCAUGGAATT against MAP2K2, with inactive: -0.502.
In the case of GCACGAGCCGCAACGAAUATT against ELK3, the median seed-adjusted z-score is inactive: -0.16.
For the sequence GAGUAGUUUUCAACGUAAUTT against ACSL3, the median seed-adjusted z-score was inactive: 0.
For GCUCCAUAUGUCAACCGUATT against PLOD2 the value was inactive: -0.281.
As to GGUCAUAUAUUUCACACGATT against ADAMTS18, the median seed-adjusted z-score was inactive: 0.824.
Turning to GCAGAAUUGGAGACGGAAATT against DNALI1, the median seed-adjusted z-score is inactive: 0.699.
With GGUGAUCGAUGAUGCCCAUTT against SYN3, the median seed-adjusted z-score was inactive: -0.729.
As to GGCAUCUACUCGUUCAGGATT against MEIS1, the median seed-adjusted z-score is inactive: 0.
On to GAAAGUGGAUGGUGCAACATT against FBXO27, for which the median seed-adjusted z-score was inactive: -0.286.
On to CUACGAUUCUGGUGGAAUATT against TRRAP, for which the median seed-adjusted z-score was active: -1.25.
For the sequence CGAUCGCGGUUUUAAUCGATT against PPP2R1B, the median seed-adjusted z-score is inactive: -0.295.
Regarding CCAUGGACACAGAAGAUGUTT against ZP3, the median seed-adjusted z-score was inactive: 0.495.
On to CCUCGAUUCUUAAAGACGATT against RELN, for which the median seed-adjusted z-score was inactive: 0.207.
On to GAUCCUCAGCUGUUAAGUATT against DCLK2, for which the median seed-adjusted z-score is inactive: -0.552.
For GAGCCUACUUGGAUGUUAATT against PAPPA the value was inactive: -0.0169; for GCUGAUUCAUAGGAUCAAUTT against DBR1, inactive: 0.438; for GGACUACCCUAUCAAGUAATT against EP300, inactive: -0.2.
Turning to GCAGAGGUACUAAUACGGATT against MSH4, the median seed-adjusted z-score was inactive: 0.
For CGUCCGGAAUGAUAGUCUUTT against YKT6, the median seed-adjusted z-score was inactive: -0.065.
GGAUUAAUCCACGAAUUGATT against EGF: the median seed-adjusted z-score is inactive: 0.00831.
With GGUCAGUUACCGCAUGUCATT against HSPB9, the median seed-adjusted z-score is inactive: 0.262.
Turning to GGAUCUAUCCAGGUAUAAATT against CACNA2D4, the median seed-adjusted z-score is inactive: -0.0464.
In the case of AAUUCCGCCUGGAACAAAATT against PDE6D, the median seed-adjusted z-score is inactive: 0.
For GGUACCUGCUGAUUCAGAATT against SLC2A5 the value was inactive: -0.429; for GUAUUGGUCUGUGAGCGAATT against SUCLA2, inactive: -0.21; for GCAUAGCUCUCGAUAAGAATT against MYH4, active: -1.8.
For CCAUAUUCCCAUGCACAUUTT against FADS1 the value was inactive: -0.905; for GCUCAGUCAUGUACUGAAATT against ANTXR2, inactive: -0.727.
On to GCAACAACUUCUUAGAGCATT against SMC3, for which the median seed-adjusted z-score is inactive: 0.507.
With ACUUAUGACUAACUUCUUATT against GPR148, the median seed-adjusted z-score was inactive: 0.
Take CGAGUGUCAGUGAUCCUGATT against TDO2: the median seed-adjusted z-score is inactive: -0.141.
GGAUGACAGUCUCAUUGCATT against GON4L: the median seed-adjusted z-score was inactive: 0.116.
Then GCAUCAAACAGAGUGAACUTT against APOC1, with inactive: 0.
In the case of GCUUUGCUGAGGUCUAUAATT against TGFBR2, the median seed-adjusted z-score was inactive: 0.8.
As for AGUGCUUCAUGUGCAGUGATT against PDLIM4, the median seed-adjusted z-score was inactive: -0.637.
Then GGUGAUUUAAUGAUCAGAATT against CNTN3, with inactive: 0.732; and CACUAGAGCUUUAGCAAAATT against TFEC, with inactive: -0.0734.
Consider GGCCUAUGCUUGUAUGGCUTT against TP53I13, for which the median seed-adjusted z-score is inactive: 0.
For GCUCAAUGGUUAUUCGGGATT against RFX3 the value was inactive: 0.17; for CAUUAGAUCUGUGAUUAGATT against MCOLN3, inactive: -0.09; for GCACCCUAUCUAUGCCUAUTT against GCDH, inactive: -0.0391.
On to CAAACAGAUCGGCAGAAAATT against ASIP, for which the median seed-adjusted z-score was inactive: -0.23.
Consider GGAGCGAAGCUACGACUAUTT against WDTC1, for which the median seed-adjusted z-score is inactive: -0.412.
For GAAGGGAACUUGCCGAAAATT against RHOXF1, the median seed-adjusted z-score is inactive: 0.341.
Turning to CCAUGUCCAUAUGCAUCUATT against HYAL1, the median seed-adjusted z-score is inactive: -0.163.
AGAAAAAUGAGAACCUCCATT against SLC25A19: the median seed-adjusted z-score is inactive: -0.104.
Turning to CAGGGACUGUGAAAAAGCUTT against ZNF84, the median seed-adjusted z-score was inactive: -0.246.
In the case of CUACCAGCGAGAAACAAGATT against TUBGCP6, the median seed-adjusted z-score was inactive: 0.
With GACCCUGAGUAGGAAGGAATT against S100A5, the median seed-adjusted z-score was inactive: 0.418.
For UCCCAGUGAUUAUACGUUATT against ARPC4 the value was inactive: -0.211; for CUGAUAGUGCUGAAGCUAATT against NPL, inactive: -0.0324; for AUCCUUAUUUGACACGAAATT against HOXC8, inactive: -0.0285.
For AGAUACGCCUGUCCCACAATT against LRRC3 the value was inactive: -0.0448.
On to GAAAACUAGCUCAACAAUATT against PSMA2, for which the median seed-adjusted z-score is inactive: -0.54.
For CGGUCUUCAUGAUUAAGUATT against FZD1 the value was inactive: -0.163; for GGAUUUCGAACUCAACAAUTT against RASGRF2, inactive: -0.225.
On to CUCAGUACCUGGAAACAAATT against NP, for which the median seed-adjusted z-score is inactive: -0.386.
For the sequence CAGUGGUAAUCACUAAUCATT against RAD51, the median seed-adjusted z-score was inactive: 0.594.
For GGAGUUAGUAUUACGAAAATT against KIF13A the value was inactive: 0.
Consider CGACUUCAAGGUGAAGACATT against RAB3B, for which the median seed-adjusted z-score is inactive: -0.705.
For CAUUUGAGCUUAUCAUUAUTT against SLC2A5 the value was inactive: -0.429; for AGACCAUCGGUAUAGUGGATT against STX10, inactive: 0.772.
Turning to GGAAUGACCUUUACAACUUTT against SAR1A, the median seed-adjusted z-score was inactive: 0.0213.
As for GGCCUAUCAUGAAUGGAAATT against BTN3A3, the median seed-adjusted z-score was inactive: 0.886.
Regarding CACUUAUGAUUAUUAGCAUTT against SLC5A3, the median seed-adjusted z-score is inactive: -0.0305.
For the sequence GGACAUUUAUGGUCCCAAATT against PLA2G4E, the median seed-adjusted z-score was inactive: 0.266.
In the case of CAGUCAACCUGAUUUGAGATT against SOX7, the median seed-adjusted z-score is inactive: -0.387.
For AGGACGAUGCGGGCAUGUATT against FGFRL1, the median seed-adjusted z-score is inactive: -0.111.
